Measured values as given in article PMC2695267.
No constants are given. Whether binding was seen depends on the method and setting. A result given as binding can be weak or reduced; the word gives no strength.

Target: T1, Integrin-alpha1 (mouse (endogenous in NIH3T3)) (UniProt Q3V3R4)
T1 sequence: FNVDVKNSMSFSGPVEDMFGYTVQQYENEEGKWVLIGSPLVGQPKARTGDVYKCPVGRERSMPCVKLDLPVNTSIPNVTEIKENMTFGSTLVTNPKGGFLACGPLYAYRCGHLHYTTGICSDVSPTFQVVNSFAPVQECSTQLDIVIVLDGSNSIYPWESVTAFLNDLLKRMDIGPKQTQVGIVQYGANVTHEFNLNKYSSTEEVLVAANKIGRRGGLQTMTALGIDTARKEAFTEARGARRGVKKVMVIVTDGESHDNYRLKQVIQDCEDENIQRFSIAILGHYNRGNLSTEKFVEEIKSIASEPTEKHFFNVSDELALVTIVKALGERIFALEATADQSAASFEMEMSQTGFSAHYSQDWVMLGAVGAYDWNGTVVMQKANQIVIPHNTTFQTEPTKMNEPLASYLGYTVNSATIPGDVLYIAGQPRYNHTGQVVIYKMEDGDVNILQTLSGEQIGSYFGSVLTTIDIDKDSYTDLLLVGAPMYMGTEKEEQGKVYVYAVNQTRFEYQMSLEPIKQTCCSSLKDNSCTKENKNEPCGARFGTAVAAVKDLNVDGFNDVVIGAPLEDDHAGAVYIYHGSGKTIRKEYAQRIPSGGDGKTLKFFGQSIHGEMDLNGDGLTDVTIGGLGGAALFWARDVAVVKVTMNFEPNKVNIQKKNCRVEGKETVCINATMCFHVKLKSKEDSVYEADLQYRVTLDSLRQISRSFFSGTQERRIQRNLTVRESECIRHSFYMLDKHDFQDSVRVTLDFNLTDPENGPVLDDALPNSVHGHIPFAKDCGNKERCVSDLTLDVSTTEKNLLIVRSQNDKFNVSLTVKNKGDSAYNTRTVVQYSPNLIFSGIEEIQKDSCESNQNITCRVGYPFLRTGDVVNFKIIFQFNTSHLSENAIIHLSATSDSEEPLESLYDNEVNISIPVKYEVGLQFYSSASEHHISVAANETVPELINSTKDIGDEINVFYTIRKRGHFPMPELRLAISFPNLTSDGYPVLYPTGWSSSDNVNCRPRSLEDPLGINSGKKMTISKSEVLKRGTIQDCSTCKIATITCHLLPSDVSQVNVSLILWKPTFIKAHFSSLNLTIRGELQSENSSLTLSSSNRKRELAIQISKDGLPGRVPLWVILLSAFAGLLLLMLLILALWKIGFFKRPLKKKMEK
Assay: antibody array; Signal Transduction AntibodyArray (Hypromatrix HM3000, 450 spots of antibodies) challenged with wt-NIH3T3 cell lysate; proteins captured by their antibodies, ROLP held with them detected with digoxigenin-labelled ROLP-specific IgGs

For “Rolly Protein (ROLP) (mouse (endogenous in NIH3T3))”, the binding was “binds weakly”.
